Data as given in PubChem BioAssay AID686943 (Drosophila RNAi Screening Center, 2013)
The screen tested about 23,000 reagents; shown is an unselected part of those that have a named target and a result. 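Extra replicates exist only for a retested subset of genes; insulin dose and duration not given; both raised and lowered dpERK matter.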 A plus sign joins genes that one reagent is predicted to hit. Not all columns of the deposit are shown. The record does not give: the amount of reagent, the time to read-out.

- Purpose: 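Search across the genome for regulators of signalling from receptor tyrosine kinase to ERK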 (primary screen)
- Cell system: Drosophila S2R+ haemocyte-like cells expressing YFP-tagged ERK (Rolled)
- Reagent: long dsRNA against Drosophila genes
- Challenge: insulin stimulation versus unstimulated cells; dose and duration not given
- Measured: 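Per-plate z-scores of phospho-ERK immunostaining normalised to YFP-tagged ERK, measured with and without insulin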
- Scale: replicate 1, z-score of dpERK with insulin and replicate 2, z-score of dpERK with insulin: higher = more active ERK per ERK-YFP after insulin; replicate 1, z-score of dpERK under basal conditions: higher = more basal active ERK per ERK-YFP

Target gene | DRSC id | replicate 1, z-score of dpERK with insulin | replicate 2, z-score of dpERK with insulin | replicate 1, z-score of dpERK under basal conditions
Muc68D (Mucin 68D) | DRSC10569 | 0.52 | 0.01 | 0.31
CG12995 | DRSC19515 | -0.81 | -0.74 | 1.41
CG42720 (retired record) | DRSC22549 | 0.45 | 0.85 | -0.08
RASSF8 (Ras association domain family member 8) | DRSC15707 | 0.23 | 0.77 | -0.23
moi + Tgs1 | DRSC16371 | -1.23 | 0.02 | -2.01
Cpr49Ad (Cuticular protein 49Ad) | DRSC07284 | 1.18 | 0.37 | 1.18
CG31624 | DRSC02617 | 0.23 | 0.33 | 1.31
Sec5 (Secretory 5) | DRSC00714 | 0.27 | -0.33 | 0.16
CG18577 | DRSC15352 | -0.37 | -0.62 | 0.18
alpha-Est5 (alpha-Esterase-5) | DRSC12617 | 0.14 | 1.28 | -0.15
Spt-I (Serine palmitoyltransferase subunit I) | DRSC06860 | 1.18 | 0.44 | 0.82
Abp1 (Actin binding protein 1) | DRSC09693 | 0.18 | 0.47 | 0.1
CG11322 | DRSC02142 | -0.31 | 0.74 | 2.1
CG43121 | DRSC10457 | 0.56 | -0.17 | -0.05
DAAM (Dishevelled Associated Activator of Morphogenesis) | DRSC18479 | -0.15 | 0.18 | 0.2
CG14309 | DRSC14788 | 1.11 | 0.05 | 0.9
CG7295 | DRSC00699 | -0.66 | 4.71 | -1.02
Cpr65Ax2 + Cpr65Ax1 | DRSC10341 | 0.2 | 0.29 | –
Cpr65Ax2 + Cpr65Ax1 | DRSC10344 | 0.64 | -0.02 | 1.38
CG1791 | DRSC18141 | 0.13 | -0.39 | -0.15
Rtf1 | DRSC04085 | 2.27 | 2.23 | -1.36
Pp1-87B (Protein phosphatase 1 at 87B) | DRSC16794 | -4.18 | -4.21 | 0.99
Alp7 (Alkaline phosphatase 7) | DRSC04355 | -2.72 | 0.25 | -0.92
Cpr92A (Cuticular protein 92A) | DRSC16000 | 1.93 | -0.16 | 0.46
sqz (squeeze) | DRSC16980 | 0.43 | 0.45 | 1.08
CG13919 | DRSC08388 | -0.64 | 0.1 | -0.18
pod1 (pod1 coronin) | DRSC18362 | -0.09 | -0.33 | -0.32
CCKLR-17D1 (Cholecystokinin-like receptor at 17D1) | DRSC20010 | 1.69 | 0.04 | -1.08
CCKLR-17D1 (Cholecystokinin-like receptor at 17D1) | DRSC20011 | 0.75 | 0.56 | -0.75
CCKLR-17D1 (Cholecystokinin-like receptor at 17D1) | DRSC20012 | 0.52 | 1.42 | -0.28
can (cannonball) | DRSC10664 | -0.04 | -0.7 | 0.41
FeCH (Ferrochelatase) | DRSC16948 | 0.01 | 0.18 | 0.84
tapas | DRSC05950 | 0.27 | -0.34 | 0.41
mei-P26 (meiotic P26) | DRSC17735 | -6.81 | -4.62 | -2.43
fmt (fiery mountain) | DRSC09717 | -0.31 | -0.01 | 0.96
Polr3I (RNA polymerase III subunit I) | DRSC19922 | 0.5 | -0.29 | -0.05
CG7208 | DRSC16212 | -0.14 | 0.26 | 0.75
Elp5 (Elongator complex protein 5) | DRSC08547 | -0.51 | 0.08 | -2.72
CG43078 | DRSC10292 | 0.9 | 0.55 | 0.35
CG43078 | DRSC10608 | 0.21 | 0.74 | -0.42
CG43078 | DRSC21541 | -0.11 | 0.28 | -0.81
CG43078 | DRSC22327 | 0.89 | 0.49 | 0.94
CCT5 (Chaperonin containing TCP1 subunit 5) | DRSC07357 | 0.15 | 0.81 | 0.61
CG4502 | DRSC02755 | -1.09 | -0.68 | 0.05
hpRNA:CR18854 (hairpin RNA:CR18854) | DRSC02702 | -1.79 | -1.25 | -0.95
ImpE2 (Ecdysone-inducible gene E2) | DRSC08665 | -0.32 | -0.84 | 0.18
CG12182 | DRSC08142 | -0.78 | -0.66 | -0.08
CG42233 | DRSC14328 | -0.16 | -0.09 | 0.75
CG42233 | DRSC15416 | -0.83 | 0 | 0.18
Fadd (Fas-associated death domain) | DRSC14122 | 0.05 | 0.1 | -0.07
CG7377 | DRSC10830 | -0.95 | 0.6 | 0.01
CG7322 | DRSC20036 | 0.04 | -0.21 | -0.5
CG17739 | DRSC06689 | 0.68 | 0.24 | 0.37
ND-MLRQ (NADH dehydrogenase (ubiquinone) MLRQ subunit) | DRSC11913 | -1.15 | -0.17 | -1.71
PpD6 (Protein phosphatase D6) | DRSC00774 | -1.03 | -0.72 | -0.68
CG5810 | DRSC15880 | 0.39 | -0.11 | 0.55
CG5810 | DRSC21921 | 0.26 | 0.76 | -0.68
thetaTry (thetaTrypsin) | DRSC07705 | -0.16 | 0.6 | 0.84
spn-B (spindle B) | DRSC17063 | -0.25 | 0.77 | 1.33
CG10943 | DRSC09805 | -0.19 | -0.55 | -0.11
eIF5 (eukaryotic translation initiation factor 5) | DRSC20165 | -0.59 | 0.18 | -1.1
cm + Inx7 | DRSC18753 | 0.16 | 0.04 | 1.31
CG15269 | DRSC01942 | 0.79 | 1.17 | 1.69
CG3505 | DRSC15489 | 0 | -0.16 | -0.22
Cox17 (Cytochrome c oxidase copper chaperone COX17) | DRSC20145 | 0.56 | 2.15 | 0.69
CG9692 | DRSC11091 | -0.69 | 1.33 | 0.85
flz (filzig) | DRSC07109 | 0.52 | 0.8 | 0.45
Cdk12 (Cyclin-dependent kinase 12) | DRSC11836 | 2.26 | 4.97 | -2.11
Rrp47 (Ribosomal RNA processing 47) | DRSC20124 | -0.54 | 1.24 | 1.44
Hacl (2-hydroxyacyl-CoA lyase) | DRSC06061 | 0.09 | -0.7 | 0.37
tok (tolkin) | DRSC17087 | -0.02 | 0.06 | -0.15
CG33155 + mRpL53 | DRSC05461 | -0.17 | 0.12 | -0.27
B-H1 (BarH1) | DRSC19334 | -3.84 | 0.76 | -0.26
B-H1 (BarH1) | DRSC21922 | 0.42 | 0.34 | -0.52

Part of the list above, limited to “replicate 1, z-score of dpERK with insulin”:
Cdk12 (Cyclin-dependent kinase 12) [DRSC11836]: 2.26
Rrp47 (Ribosomal RNA processing 47) [DRSC20124]: -0.54
Hacl (2-hydroxyacyl-CoA lyase) [DRSC06061]: 0.09
tok (tolkin) [DRSC17087]: -0.02
